Results: patent US20020197647A1
These are yes or no findings as the source states them, for the method shown. In cells and extracts the contact can be indirect. Some entries that bind do so weakly or less than the wild type.

Amino acid sequences for entries named in this document (tags omitted). A change or cut given only in a name is not applied to a line headed by its entry. Residues count along the entry.
UniProt P05412: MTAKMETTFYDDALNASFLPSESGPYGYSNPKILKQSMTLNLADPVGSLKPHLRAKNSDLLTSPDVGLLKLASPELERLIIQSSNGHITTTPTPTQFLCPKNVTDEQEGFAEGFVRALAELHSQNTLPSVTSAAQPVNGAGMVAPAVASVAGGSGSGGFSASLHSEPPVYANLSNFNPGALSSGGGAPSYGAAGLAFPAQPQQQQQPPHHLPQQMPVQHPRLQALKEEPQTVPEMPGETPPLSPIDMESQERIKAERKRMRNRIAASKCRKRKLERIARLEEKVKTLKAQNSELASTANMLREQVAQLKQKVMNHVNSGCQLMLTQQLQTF
UniProt P40763, residues 2-770: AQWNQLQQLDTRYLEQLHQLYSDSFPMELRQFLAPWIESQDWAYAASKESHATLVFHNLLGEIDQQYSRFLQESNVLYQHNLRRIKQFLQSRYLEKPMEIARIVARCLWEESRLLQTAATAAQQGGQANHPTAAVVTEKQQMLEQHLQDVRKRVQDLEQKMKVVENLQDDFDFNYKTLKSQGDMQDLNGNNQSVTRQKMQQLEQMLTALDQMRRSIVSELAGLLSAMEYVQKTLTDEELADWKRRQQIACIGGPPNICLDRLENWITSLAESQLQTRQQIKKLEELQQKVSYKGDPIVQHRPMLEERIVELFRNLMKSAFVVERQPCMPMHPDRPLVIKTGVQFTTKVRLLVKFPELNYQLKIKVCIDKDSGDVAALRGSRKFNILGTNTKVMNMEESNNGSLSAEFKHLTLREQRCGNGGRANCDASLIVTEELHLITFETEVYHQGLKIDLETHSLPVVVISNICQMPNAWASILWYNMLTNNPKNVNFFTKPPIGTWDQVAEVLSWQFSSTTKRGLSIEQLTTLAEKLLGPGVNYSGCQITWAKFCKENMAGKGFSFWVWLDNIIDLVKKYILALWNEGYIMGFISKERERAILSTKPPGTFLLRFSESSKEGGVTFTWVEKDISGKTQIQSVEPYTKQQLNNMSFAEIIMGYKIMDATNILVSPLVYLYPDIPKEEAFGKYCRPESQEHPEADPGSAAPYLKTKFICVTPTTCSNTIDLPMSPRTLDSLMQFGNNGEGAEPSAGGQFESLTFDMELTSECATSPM
UniProt P17325: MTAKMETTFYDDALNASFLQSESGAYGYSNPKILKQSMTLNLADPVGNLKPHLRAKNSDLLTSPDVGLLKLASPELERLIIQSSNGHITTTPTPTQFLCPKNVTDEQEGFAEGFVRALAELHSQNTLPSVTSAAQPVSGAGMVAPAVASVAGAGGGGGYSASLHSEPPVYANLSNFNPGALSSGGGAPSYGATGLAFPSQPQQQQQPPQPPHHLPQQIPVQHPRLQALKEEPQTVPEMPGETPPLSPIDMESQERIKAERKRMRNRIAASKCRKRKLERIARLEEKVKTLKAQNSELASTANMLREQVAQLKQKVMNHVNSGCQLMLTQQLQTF

Columns and labels:
[1] = biological target: endogenous c-Jun of human HepG2 cells (human) (UniProt P05412); assay: GST pull-down from HepG2 cell extracts, blot with c-Jun antibody
[2] = biological target: endogenous c-Jun of human HepG2 cells (human) (UniProt P05412); assay: GST pull-down from HepG2 whole cell extracts, immunoblot with c-Jun antibody
[3] = biological target: GST-Stat3 (107-377) (Homo sapiens (Human)) (UniProt P40763); assay: GST pull-down of in vitro translated c-Jun fragment
[4] = biological target: GST-Stat3 (107-377) (Homo sapiens (Human)) (UniProt P40763); assay: GST pull-down of 35S-labeled in vitro translated c-Jun fragment
[5] = biological target: endogenous c-Jun of human HepG2 cells (human) (UniProt P05412); assay: co-immunoprecipitation from HepG2 nuclear extracts, Western blot
[6] = biological target: endogenous c-Jun of human HepG2 cells (human) (UniProt P05412); assay: co-immunoprecipitation from nuclear extracts of IL-6-treated and untreated HepG2 cells, Western blot

| binding [1] | binding [2] | Substance | also measured |
| --- | --- | --- | --- |
| binds | binds | GST-Stat3 (107-358) (from UniProt P40763 107-358) |  |
| binds | binds | GST-Stat3 (107-377) (from UniProt P40763 107-377) |  |
| binds | binds | GST-Stat3 (130-358) (from UniProt P40763 130-358) |  |
|  |  | c-Jun residues 105-334 (from UniProt P17325 105-332) | binding [3]: binds; binding [4]: binds |
|  |  | endogenous Stat3 of human HepG2 cells (from UniProt P40763 2-770) | binding [5]: binds; binding [6]: binds |
